Values of other authors in patent publication US20060110407A1 (priority 2001, published 2006).
At least one compound was matched to its structure with a doubt left.

Tested on: camelpox, cowpox, monkeypox, and vaccinia viruses
Settings: cited from earlier work

## Nc1ccn([C@@H]2CS[C@H](CO)O2)c(=O)n1 [lamivudine]
  effectiveness in treating Orthopoxvirus infections: effective
